## Cleaved PARP after 72 h of treatment

Source: doi:10.1371/journal.pone.0140310, primary screening data, rounded.

Compounds and concentrations:
KU-0063794: COc1ccc(-c2ccc3c(N4CCOCC4)nc(N4C[C@@H](C)O[C@@H](C)C4)nc3n2)cc1CO at 100 nM
OSU-03012: NCC(=O)Nc1ccc(-n2nc(C(F)(F)F)cc2-c2ccc3c(ccc4ccccc43)c2)cc1 at 5000 nM
U73122: COc1ccc2c(c1)CCC1C2CCC2(C)C(NCCCCCCN3C(=O)C=CC3=O)CCC12 (centres unmarked) at 2000 nM
pioglitazone: CCc1ccc(CCOc2ccc(CC3SC(=O)NC3=O)cc2)nc1 (centres unmarked) at 10000 nM
everolimus: CO[C@H]1C[C@@H]2CC[C@@H](C)[C@@](O)(O2)C(=O)C(=O)N2CCCC[C@H]2C(=O)O[C@H]([C@H](C)C[C@@H]2CC[C@@H](OCCO)[C@H](OC)C2)CC(=O)[C@H](C)/C=C(\C)[C@@H](O)[C@@H](OC)C(=O)[C@H](C)C[C@H](C)/C=C/C=C/C=C/1C at 100 nM
erlotinib: C#Cc1cccc(Nc2ncnc3cc(OCCOC)c(OCCOC)cc23)c1 at 4000 nM
palbociclib: CC(=O)c1c(C)c2cnc(Nc3ccc(N4CCNCC4)cn3)nc2n(C2CCCC2)c1=O at 200 nM

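The test systems are human melanoma cell lines, treated with a pair of drugs for 72 h and then stained and imaged. Each value is the cleaved-PARP-positive fraction of nuclei relative to DMSO-treated wells, in %, so that 100 equals the control and higher values mean more apoptosis. Concentrations were fixed for each drug; these are the higher of two levels. These are primary screening values without error estimates. The marker varies much from line to line, for technical or biological reasons.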
An unselected part of the screen is shown.
A dash means that no value is listed here.

| # | Combination | IPC-298 | LOX IMVI | WM451Lu | WM1745 | UACC-62 | SK-MEL-28 |
|---|---|---|---|---|---|---|---|
| 1 | palbociclib and everolimus | 130 | 319 | 124 | 94.9 | 181 | 213 |
| 2 | pioglitazone and erlotinib | 55.2 | 79.4 | 92.8 | 325 | 125 | 129 |
| 3 | OSU-03012 and KU-0063794 | 35.7 | 66.7 | 52.3 | 86.4 | 164 | 491 |
| 4 | erlotinib and palbociclib | 154 | 114 | 112 | 151 | 180 | 97.9 |
| 5 | pioglitazone and OSU-03012 | 83.6 | 177 | 30.8 | 98.8 | 244 | 1560 |
| 6 | KU-0063794 and erlotinib | 29.6 | 81.1 | 125 | 159 | 60.5 | 87.6 |
| 7 | OSU-03012 and palbociclib | 137 | 178 | 43.7 | 108 | 121 | 118 |
| 8 | palbociclib and KU-0063794 | 121 | 539 | 155 | - | 129 | 103 |
| 9 | KU-0063794 and U73122 | 67.8 | 115 | 108 | 139 | 123 | 145 |
| 10 | everolimus and KU-0063794 | 211 | 103 | 488 | - | 463 | 156 |
| 11 | erlotinib and everolimus | 723 | 138 | 226 | 137 | 321 | 64.0 |
| 12 | palbociclib and pioglitazone | 32.3 | 205 | 47.2 | - | 82.8 | 107 |
| 13 | pioglitazone and everolimus | 209 | 157 | 217 | - | 280 | 178 |
| 14 | erlotinib and OSU-03012 | 139 | 161 | 93.9 | 195 | 149 | 439 |
| 15 | palbociclib and U73122 | 184 | 131 | 117 | - | 198 | 61.1 |
| 16 | pioglitazone and KU-0063794 | 69.5 | 132 | 110 | 112 | 101 | 309 |
| 17 | U73122 and erlotinib | 67.8 | 318 | 59.9 | 235 | 360 | 217 |
| 18 | U73122 and pioglitazone | 49.4 | 134 | 113 | 141 | 417 | 128 |
| 19 | everolimus and OSU-03012 | 111 | 84.8 | 288 | 87.6 | 175 | 551 |
| 20 | everolimus and U73122 | 69.7 | 131 | 594 | - | 306 | 238 |

The last 2 entries again:

Combination	IPC-298	LOX IMVI	WM451Lu	WM1745	UACC-62	SK-MEL-28
everolimus and OSU-03012	111	84.8	288	87.6	175	551
everolimus and U73122	69.7	131	594	-	306	238